Measurements taken from PMC5529512.

By UniProt entry, the sequences of proteins in these tests, tags left out. Residues count along the entry.
UniProt Q9Y4K1, residues 409-2131: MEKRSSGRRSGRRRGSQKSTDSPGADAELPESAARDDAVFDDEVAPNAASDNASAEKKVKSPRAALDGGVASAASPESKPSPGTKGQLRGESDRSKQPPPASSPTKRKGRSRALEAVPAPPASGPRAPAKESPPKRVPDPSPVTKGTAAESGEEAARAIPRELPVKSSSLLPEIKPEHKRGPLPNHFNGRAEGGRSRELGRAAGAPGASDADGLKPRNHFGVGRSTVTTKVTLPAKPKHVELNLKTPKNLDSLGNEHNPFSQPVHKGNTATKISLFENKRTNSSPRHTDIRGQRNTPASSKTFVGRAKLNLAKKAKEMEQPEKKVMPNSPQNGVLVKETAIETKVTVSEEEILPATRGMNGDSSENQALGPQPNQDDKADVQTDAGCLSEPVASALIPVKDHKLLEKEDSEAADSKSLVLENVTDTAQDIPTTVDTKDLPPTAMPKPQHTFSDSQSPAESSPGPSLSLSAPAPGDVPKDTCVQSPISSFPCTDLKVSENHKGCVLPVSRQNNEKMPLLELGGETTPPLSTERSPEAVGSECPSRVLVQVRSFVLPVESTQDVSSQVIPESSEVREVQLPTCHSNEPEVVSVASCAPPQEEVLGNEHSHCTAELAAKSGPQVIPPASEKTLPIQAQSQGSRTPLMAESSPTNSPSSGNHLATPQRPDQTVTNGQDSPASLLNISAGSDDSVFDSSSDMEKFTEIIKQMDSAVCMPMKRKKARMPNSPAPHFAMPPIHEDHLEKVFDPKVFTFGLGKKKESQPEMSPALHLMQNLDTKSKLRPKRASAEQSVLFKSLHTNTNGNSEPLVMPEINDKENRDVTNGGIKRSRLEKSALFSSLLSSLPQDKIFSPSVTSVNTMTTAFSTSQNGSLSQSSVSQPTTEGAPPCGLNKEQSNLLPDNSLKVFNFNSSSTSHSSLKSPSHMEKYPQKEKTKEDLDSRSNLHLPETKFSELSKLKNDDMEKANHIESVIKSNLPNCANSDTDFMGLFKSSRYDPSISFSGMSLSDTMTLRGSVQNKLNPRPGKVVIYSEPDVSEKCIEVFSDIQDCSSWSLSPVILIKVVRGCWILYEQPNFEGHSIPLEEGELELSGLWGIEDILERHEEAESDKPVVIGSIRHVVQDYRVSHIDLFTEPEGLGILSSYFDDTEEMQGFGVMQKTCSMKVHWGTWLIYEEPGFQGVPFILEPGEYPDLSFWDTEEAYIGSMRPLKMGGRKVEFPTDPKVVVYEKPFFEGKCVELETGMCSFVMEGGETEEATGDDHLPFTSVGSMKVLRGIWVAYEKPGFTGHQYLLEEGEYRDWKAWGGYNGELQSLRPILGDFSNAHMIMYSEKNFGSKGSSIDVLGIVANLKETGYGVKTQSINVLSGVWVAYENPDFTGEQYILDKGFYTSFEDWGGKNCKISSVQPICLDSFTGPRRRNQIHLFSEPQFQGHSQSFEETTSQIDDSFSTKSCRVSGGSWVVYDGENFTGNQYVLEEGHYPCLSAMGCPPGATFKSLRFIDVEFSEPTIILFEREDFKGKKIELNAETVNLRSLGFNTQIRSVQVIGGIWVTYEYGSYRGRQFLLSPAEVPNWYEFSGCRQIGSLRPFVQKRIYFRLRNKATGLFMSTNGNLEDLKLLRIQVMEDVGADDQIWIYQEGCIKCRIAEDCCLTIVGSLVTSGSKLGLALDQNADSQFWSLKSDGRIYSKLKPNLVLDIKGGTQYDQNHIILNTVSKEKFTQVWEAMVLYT
UniProt Q00610: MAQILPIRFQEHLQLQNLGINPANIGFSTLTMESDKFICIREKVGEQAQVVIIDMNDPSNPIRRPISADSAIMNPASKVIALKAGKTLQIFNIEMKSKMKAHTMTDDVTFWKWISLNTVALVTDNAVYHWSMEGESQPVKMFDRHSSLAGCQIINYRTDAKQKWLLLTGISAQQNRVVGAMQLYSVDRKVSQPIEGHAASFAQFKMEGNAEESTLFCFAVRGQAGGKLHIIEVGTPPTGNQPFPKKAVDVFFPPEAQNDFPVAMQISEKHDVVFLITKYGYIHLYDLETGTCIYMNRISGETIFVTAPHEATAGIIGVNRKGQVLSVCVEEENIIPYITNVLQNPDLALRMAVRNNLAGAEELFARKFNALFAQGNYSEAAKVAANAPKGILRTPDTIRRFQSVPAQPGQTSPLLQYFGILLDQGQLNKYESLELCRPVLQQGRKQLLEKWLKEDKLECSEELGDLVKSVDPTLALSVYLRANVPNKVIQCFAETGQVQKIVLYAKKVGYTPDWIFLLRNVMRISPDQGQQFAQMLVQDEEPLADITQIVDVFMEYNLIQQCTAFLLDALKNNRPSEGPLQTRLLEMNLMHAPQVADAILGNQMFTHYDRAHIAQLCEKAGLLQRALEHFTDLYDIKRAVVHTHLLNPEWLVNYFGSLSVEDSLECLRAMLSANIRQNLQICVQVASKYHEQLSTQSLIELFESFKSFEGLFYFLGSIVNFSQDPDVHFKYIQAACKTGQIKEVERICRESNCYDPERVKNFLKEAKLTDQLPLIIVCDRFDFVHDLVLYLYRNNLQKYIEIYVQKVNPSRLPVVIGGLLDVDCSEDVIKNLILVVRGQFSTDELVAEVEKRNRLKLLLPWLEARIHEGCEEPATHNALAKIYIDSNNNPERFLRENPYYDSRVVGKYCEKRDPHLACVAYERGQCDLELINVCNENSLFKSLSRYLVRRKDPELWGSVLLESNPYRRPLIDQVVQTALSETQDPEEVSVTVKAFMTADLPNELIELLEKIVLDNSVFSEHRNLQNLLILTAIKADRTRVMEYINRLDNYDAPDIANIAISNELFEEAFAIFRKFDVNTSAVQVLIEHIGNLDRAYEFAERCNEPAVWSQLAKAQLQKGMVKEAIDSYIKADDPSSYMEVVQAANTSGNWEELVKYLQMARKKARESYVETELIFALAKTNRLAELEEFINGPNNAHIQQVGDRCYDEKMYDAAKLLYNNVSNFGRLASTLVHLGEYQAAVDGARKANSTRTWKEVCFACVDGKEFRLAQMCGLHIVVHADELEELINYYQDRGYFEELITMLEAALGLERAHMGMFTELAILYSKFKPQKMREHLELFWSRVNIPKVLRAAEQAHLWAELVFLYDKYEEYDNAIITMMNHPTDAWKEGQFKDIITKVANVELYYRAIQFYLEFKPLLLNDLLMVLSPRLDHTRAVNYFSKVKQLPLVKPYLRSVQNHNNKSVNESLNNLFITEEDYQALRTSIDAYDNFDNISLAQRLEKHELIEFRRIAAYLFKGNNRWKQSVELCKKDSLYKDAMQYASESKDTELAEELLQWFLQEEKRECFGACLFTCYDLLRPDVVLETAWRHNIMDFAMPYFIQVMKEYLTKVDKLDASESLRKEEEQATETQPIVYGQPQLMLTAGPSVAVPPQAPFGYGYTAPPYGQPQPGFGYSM
UniProt P35580: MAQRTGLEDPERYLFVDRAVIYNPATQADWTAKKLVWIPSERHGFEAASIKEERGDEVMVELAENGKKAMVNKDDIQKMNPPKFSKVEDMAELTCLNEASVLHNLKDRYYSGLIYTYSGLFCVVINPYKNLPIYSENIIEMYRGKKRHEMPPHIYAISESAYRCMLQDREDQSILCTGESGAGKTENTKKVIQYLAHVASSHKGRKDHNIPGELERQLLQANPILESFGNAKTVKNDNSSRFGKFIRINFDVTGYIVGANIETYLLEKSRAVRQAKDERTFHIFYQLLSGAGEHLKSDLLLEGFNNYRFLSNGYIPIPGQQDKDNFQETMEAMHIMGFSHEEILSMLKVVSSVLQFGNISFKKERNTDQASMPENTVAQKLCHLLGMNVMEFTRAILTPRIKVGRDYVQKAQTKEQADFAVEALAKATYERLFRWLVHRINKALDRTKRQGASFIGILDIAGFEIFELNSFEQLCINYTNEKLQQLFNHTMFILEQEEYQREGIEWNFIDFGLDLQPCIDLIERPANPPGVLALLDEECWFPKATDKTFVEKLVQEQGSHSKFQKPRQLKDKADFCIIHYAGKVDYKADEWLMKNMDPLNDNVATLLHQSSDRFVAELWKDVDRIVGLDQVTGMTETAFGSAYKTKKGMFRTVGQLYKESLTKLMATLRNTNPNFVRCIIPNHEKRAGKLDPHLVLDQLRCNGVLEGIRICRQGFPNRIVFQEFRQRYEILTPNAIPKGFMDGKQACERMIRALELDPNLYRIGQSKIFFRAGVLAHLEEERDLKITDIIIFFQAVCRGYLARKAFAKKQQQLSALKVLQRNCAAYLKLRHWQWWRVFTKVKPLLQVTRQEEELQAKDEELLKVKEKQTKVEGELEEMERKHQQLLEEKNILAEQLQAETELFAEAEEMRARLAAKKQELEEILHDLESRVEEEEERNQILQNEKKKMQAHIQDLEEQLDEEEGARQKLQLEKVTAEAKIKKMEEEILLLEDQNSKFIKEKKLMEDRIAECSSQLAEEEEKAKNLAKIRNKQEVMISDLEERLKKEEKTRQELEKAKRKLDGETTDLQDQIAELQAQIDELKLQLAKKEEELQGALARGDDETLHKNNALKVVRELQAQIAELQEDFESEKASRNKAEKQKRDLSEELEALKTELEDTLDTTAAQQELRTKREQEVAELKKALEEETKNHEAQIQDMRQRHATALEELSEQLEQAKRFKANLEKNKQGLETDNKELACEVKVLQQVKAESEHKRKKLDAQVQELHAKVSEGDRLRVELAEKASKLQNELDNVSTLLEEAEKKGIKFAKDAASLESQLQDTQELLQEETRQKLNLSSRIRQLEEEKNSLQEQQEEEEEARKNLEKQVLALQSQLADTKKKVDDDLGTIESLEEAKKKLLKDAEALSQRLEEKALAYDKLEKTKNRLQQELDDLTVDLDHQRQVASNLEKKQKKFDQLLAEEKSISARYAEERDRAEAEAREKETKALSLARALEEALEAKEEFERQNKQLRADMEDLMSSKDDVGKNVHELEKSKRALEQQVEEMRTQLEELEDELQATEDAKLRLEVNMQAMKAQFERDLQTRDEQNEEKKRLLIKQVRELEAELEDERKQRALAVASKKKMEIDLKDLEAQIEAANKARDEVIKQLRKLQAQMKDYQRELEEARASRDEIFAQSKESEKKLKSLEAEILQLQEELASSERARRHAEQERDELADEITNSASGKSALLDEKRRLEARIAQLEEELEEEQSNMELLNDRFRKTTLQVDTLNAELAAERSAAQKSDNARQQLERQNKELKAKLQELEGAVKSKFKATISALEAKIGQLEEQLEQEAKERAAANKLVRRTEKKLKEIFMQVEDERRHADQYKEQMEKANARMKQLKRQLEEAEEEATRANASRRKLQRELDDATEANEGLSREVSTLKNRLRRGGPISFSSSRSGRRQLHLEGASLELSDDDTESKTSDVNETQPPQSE
UniProt P09874: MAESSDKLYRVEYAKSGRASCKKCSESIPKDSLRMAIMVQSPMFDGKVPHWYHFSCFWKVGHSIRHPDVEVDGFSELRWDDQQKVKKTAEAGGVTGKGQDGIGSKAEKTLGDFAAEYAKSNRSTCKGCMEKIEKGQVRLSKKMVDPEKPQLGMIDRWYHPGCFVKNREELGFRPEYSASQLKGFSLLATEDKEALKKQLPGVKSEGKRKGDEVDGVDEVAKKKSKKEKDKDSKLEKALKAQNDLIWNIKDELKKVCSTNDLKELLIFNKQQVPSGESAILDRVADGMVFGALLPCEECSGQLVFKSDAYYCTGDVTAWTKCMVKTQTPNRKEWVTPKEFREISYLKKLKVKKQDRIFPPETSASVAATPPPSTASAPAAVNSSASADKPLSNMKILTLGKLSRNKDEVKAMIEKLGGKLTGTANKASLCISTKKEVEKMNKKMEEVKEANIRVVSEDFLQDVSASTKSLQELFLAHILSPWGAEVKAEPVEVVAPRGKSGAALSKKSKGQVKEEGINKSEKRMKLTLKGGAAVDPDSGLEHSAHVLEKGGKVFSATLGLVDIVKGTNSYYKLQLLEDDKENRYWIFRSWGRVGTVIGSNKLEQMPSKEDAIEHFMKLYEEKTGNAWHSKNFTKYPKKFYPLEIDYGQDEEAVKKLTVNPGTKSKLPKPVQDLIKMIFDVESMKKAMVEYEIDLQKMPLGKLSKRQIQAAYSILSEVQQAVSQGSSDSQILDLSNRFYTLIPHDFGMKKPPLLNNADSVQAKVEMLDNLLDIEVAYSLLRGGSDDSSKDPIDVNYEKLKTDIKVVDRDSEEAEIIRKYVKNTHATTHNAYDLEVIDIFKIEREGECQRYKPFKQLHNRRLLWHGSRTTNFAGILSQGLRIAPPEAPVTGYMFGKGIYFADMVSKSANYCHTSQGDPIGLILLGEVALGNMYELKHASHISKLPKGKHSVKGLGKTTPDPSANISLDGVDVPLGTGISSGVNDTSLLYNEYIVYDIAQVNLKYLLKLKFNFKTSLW

These substances were tested against AIM1 (absent in melanoma 1), biotin-affinity-tagged, wild type (human) (UniProt Q9Y4K1) (assay: affinity purification with mass spectrometry; biotin-affinity-tagged AIM1 transiently expressed in HEK293 against control vector; lysis in CoIP buffer (50 mM HEPES pH 7.5, 1% Triton X-100); streptavidin beads, elution with AcTEV protease, 60 kDa size selection, LC-MS/MS; single experiment).

binding, binds:
Clathrin heavy chain 1 (from UniProt Q00610 1-1675)
Drebrin 1 isoform a (from UniProt Q16643 1-649)
Filamin A, alpha isoform 1 (from UniProt P21333-2 1-2639)
Filamin B (from UniProt O75369 1-2602)
Keratin 1 (from UniProt P04264 1-644)
Keratin 2 (from UniProt P35908 1-639)
Keratin 5 (from UniProt P13647 1-590)
Keratin 6A (from UniProt P02538 1-564)
Keratin 10 (from UniProt P13645 1-584)
Myosin, heavy polypeptide 9 (from UniProt P35579 1-1960)
Myosin, heavy polypeptide 10 (from UniProt P35580 1-1976)
Poly (ADP-ribose) polymerase (from UniProt P09874 1-1014)
Vimentin (from UniProt P08670 1-466)

Results are given in words; binding and its absence hold for the method and conditions named. Binding seen in cells or lysates may run through a third protein. Here binding means that the protein was enriched with, or labelled near, the bait; the list need not be complete.
